# Results of single-concentration screens

By UniProt entry, the sequences of proteins in these tests, tags left out. Residues count along the entry.
UniProt Q8IDJ8, 1-583: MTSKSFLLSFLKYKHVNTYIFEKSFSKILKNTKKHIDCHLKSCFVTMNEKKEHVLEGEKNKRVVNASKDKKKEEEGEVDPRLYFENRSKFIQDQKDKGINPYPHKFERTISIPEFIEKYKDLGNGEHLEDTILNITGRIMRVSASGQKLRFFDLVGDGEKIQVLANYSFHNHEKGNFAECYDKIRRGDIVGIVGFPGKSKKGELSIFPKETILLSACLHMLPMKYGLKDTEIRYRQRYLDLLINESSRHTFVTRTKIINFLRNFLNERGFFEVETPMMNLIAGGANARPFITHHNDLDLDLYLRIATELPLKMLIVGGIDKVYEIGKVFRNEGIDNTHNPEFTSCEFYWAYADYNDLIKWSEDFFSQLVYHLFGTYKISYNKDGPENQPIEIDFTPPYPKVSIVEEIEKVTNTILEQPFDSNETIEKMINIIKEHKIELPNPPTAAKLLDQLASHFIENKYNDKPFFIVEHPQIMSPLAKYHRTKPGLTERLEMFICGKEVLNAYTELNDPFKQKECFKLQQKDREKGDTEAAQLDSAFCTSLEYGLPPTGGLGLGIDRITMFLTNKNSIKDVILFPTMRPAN
UniProt I6X8D2, whole entry: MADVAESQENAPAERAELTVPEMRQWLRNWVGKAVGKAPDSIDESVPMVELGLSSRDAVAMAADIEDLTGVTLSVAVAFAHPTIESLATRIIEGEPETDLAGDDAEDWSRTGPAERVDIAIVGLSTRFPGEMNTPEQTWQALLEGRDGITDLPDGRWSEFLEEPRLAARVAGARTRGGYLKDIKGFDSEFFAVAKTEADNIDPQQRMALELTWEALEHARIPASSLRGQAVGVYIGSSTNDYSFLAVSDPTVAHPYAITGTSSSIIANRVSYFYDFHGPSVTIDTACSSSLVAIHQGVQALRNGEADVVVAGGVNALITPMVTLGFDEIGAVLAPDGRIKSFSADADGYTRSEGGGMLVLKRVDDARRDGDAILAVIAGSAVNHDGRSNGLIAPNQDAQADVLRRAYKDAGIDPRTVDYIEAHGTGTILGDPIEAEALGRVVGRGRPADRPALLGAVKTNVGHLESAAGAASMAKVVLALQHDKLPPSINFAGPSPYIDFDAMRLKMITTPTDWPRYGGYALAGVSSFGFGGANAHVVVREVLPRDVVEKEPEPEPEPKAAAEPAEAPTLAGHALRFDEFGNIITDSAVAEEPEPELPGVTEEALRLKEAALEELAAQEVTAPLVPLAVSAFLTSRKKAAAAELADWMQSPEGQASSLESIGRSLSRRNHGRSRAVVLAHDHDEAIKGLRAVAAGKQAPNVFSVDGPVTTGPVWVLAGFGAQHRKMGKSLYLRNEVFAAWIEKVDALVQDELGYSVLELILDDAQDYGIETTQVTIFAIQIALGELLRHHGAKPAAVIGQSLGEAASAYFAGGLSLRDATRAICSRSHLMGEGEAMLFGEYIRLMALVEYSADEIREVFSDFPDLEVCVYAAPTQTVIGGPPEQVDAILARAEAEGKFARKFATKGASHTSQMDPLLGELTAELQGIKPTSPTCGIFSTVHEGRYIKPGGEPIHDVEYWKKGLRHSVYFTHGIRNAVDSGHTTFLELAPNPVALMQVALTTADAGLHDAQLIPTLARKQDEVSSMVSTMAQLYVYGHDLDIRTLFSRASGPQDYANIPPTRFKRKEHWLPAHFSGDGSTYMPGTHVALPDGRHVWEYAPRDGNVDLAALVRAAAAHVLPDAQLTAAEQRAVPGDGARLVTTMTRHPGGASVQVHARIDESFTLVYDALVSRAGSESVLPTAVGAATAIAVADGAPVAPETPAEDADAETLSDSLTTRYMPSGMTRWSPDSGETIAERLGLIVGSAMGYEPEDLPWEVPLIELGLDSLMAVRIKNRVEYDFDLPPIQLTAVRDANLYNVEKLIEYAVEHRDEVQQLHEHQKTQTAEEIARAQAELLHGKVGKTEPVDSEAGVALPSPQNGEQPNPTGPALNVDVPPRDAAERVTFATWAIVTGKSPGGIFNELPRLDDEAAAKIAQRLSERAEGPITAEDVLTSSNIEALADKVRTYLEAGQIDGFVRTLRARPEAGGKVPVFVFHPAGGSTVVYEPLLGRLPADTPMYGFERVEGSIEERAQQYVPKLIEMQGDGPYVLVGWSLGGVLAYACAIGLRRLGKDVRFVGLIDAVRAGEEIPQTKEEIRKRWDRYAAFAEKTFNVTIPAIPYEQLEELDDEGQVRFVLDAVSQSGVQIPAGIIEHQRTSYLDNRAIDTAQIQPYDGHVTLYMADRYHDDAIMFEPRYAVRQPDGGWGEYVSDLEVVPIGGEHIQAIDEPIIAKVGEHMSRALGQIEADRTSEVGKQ
UniProt P9WFT3, whole entry: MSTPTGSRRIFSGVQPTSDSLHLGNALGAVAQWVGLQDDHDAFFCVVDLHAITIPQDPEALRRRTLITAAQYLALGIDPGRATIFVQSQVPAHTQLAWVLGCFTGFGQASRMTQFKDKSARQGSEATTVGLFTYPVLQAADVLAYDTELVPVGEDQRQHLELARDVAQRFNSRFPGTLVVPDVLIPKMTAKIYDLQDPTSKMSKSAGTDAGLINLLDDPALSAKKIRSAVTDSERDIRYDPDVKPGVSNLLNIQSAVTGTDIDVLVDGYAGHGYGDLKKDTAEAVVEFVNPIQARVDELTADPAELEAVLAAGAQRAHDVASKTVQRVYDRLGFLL
UniProt Q4DA54, 1-478: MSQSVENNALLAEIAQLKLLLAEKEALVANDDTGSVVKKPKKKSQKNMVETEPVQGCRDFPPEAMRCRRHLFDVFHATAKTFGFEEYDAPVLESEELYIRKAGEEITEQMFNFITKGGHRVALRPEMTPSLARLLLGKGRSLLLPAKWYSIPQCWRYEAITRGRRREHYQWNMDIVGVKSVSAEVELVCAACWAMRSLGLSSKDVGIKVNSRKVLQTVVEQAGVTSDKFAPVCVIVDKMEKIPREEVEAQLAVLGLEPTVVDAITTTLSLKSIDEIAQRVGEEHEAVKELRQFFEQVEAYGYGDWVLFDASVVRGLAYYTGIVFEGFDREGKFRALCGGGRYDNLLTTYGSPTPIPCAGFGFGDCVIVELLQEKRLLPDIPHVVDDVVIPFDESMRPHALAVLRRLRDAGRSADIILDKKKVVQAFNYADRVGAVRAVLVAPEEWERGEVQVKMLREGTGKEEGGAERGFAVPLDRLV

Measurements from “University of Dundee, Small-Polar-MMV Screening Library” (2021), ChEMBL document CHEMBL3988442.

A: 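Enzyme assay of the cytosolic lysyl-tRNA synthetase in 384-well plates, read by luminescence. Target: Lysine-tRNA ligase, Plasmodium falciparum 3D7 (UniProt Q8IDJ8). Compounds at 30 µM. Direction is inferred from only a few compounds that gave an IC50; most scored high, so higher reads as stronger inhibition. Of about 69,000 compounds tested this way, about 49 (0.071%) reached 50% or more in at least one test.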
B: 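Enzyme assay of the thioesterase domain of polyketide synthase 13; the read-out is not stated. Target: Polyketide synthase Pks13, Mycobacterium tuberculosis (UniProt I6X8D2). Compounds at 30 µM. Higher reads as stronger inhibition (inferred from which compounds were picked for retests). Of about 67,000 compounds tested this way, about 300 (0.46%) reached 50% or more in at least one test.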
C: 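Enzyme assay of tryptophanyl-tRNA synthetase; the read-out is not stated. Target: Tryptophan-tRNA ligase, Mycobacterium tuberculosis (UniProt P9WFT3). Compounds at 10 µM. Higher most likely means stronger inhibition; the record gives no direction and few retests gave an IC50. About 65,000 compounds were tested under these conditions; 0.098% (about 64) showed 50% or more at least once.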
D: 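Enzyme assay of histidyl-tRNA synthetase; the read-out is not stated. Target: Histidine-tRNA ligase, Trypanosoma cruzi CL Brener (UniProt Q4DA54). Tested at 30 µM. The record gives no direction; compounds that gave an IC50 in retests scored well above the rest, so higher reads as stronger inhibition. Size under these conditions: about 69,000 compounds, about 31 of them at 50% or above in at least one test.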

The filed quantity is “Percent Effect” (%). The controls that fix the scale are not given in the record; negative values are as filed. This is an unselected part of the compounds tested. A dash means the value is not listed here; it may have been measured.

| compound | A | B | C | D |
|---|---|---|---|---|
| `COc1ccc(CNCC(C)Oc2ccccn2)cc1Br` (centres unmarked) | 3.464 | -30.4 | -0.804 | -2.732 |
| `Cc1cc(N2CCN(C(=O)Cc3ccc4c(c3)OCO4)CC2)cc(C)n1` | 4.772 | 0.7928 | 0.301 | 0 |
| `COc1ccc2c(c1)CN(c1cc(N3CCCC3CO)ncn1)CC2` (centres unmarked) | 0.2396 | -16.96 | -2.36 | 7.563 |
| `c1csc(-c2noc(COCC3CCCO3)n2)c1` (centres unmarked) | 1.243 | -25.45 | 1.474 | 2.762 |
| `Cc1cccc(-c2nnn3c2COC(CNCc2nccs2)C3)c1` (centres unmarked) | 0.5769 | -4.357 | -0.4188 | 5.6 |
| `Cc1nn(C)c(C)c1CCC(=O)OCC(=O)N1CCc2sccc2C1` | 1.394 | -23.37 | -7.531 | 4.762 |
| `Cc1c(C(=O)NC2(C#N)CCSC2)nnn1-c1ccccc1Cl` (centres unmarked) | 3.344 | -18.31 | -3.865 | 12.17 |
| `Cn1ccnc1-c1nccn1-c1cccc(CN2CCCC2)c1` | -0.4027 | -5.055 | -0.503 | -0.5236 |
| `CO[C@H]1C(=O)N(C)C2(CCNCC2)[C@@H]1C(=O)Nc1ccccc1` | 6.658 | 9.239 | - | 8.989 |
| `CC(C)c1ncncc1C(=O)NCCN1CCOCC1` | 1.482 | -16.26 | 1.434 | 4.386 |
| `Cc1cc(NC(=O)c2ccc(F)cc2Cl)n(C)n1` | 1.339 | -7.014 | 1.961 | -7.182 |
| `COc1ccc(N2CCN(C(=O)Cn3nc(C)c(Cl)c3C)CC2)cc1` | 7.635 | -10.21 | 2.294 | 4.386 |
| `COc1cccc(CNC(=O)c2ccccc2-n2cc(CN)cn2)c1` | 1.453 | -3.504 | - | 7.491 |
| `COC(=O)c1ccc(N2CCN(C(=O)C3CCC3)C(C)C2)cc1` (centres unmarked) | 2.233 | -20.9 | 1.142 | 1.266 |
| `CC(=O)N1CCC(N2CCOC[C@H]2c2nc(-c3ccncc3)c[nH]2)CC1` | 1.513 | 7.512 | 0.6829 | 6.522 |
| `O=C(Nc1ccccc1F)NC1(CO)CCOCC1` | 2.744 | 1.688 | 0.7988 | 10.3 |
| `CCCNc1ncc(CN2CCN(C)C(=O)C2C)cn1` (centres unmarked) | 3.718 | -36.06 | -1.459 | 0.578 |
| `Cc1ccc(-c2nc(CCNC(=O)CCN3CCOC3=O)co2)cc1` | 1.639 | -19.27 | -0.7601 | 1.132 |
| `c1ccc(N2CCCC3(CCN(Cc4nccs4)C3)C2)nc1` (centres unmarked) | -4.441 | 2.601 | 10.15 | 6.015 |
| `CC(=O)c1nn(-c2ccccc2)c(C)c1C(C)=O` | 0.5077 | -7.662 | -0.3079 | 0 |
| `Cn1ncc2c1C(COCC1CC1)CN(S(C)(=O)=O)C2` (centres unmarked) | 1.045 | -1.754 | -6.173 | 2.956 |
| `COCc1ccccc1C(=O)N1CCCC(c2cc(C)[nH]n2)C1` (centres unmarked) | -1.8 | -16.69 | 6.073 | 9.012 |
| `CN(C)C(=O)N1Cc2ccccc2C2(CCNCC2)C1` | 4.245 | -28.62 | -2.829 | 7.767 |
| `CNC(=O)NCC1CCC2(CCN(C(=O)c3cccnc3)CC2)CO1` (centres unmarked) | 6.218 | -6.832 | - | 8.466 |
| `CC(=O)c1ccc(CN2CCCC23CCN(c2ccccn2)CC3)cc1` | 5.066 | -46.2 | 2.596 | 3.636 |
| `Cc1n[nH]c(C)c1Sc1ccccc1NC(=O)CN1CCCC1` | 3.303 | -12.43 | 3.846 | 7.407 |
| `Cc1ccc(CN2Cc3cnn(C)c3C(COCC3CC3)C2)o1` (centres unmarked) | -0.6966 | -16.48 | -3.374 | 10.84 |
| `COc1ccccc1C1(C(=O)NCCN2CCOCC2)CCOCC1` | 7.947 | -1.005 | -0.2347 | 0.7519 |
| `CCNC(=O)c1ccnc(N2CCCC(COc3ccccc3C)C2)c1` (centres unmarked) | 2.55 | 36.86 | 4.866 | 9.091 |
| `N#Cc1ccc(OCCNCCn2cccn2)cc1` | 0.3296 | -39.78 | -4.728 | 7.324 |
| `CCOc1ccc(NC(C)=O)cc1S(=O)(=O)Nc1nnc(C)s1` | 7.741 | -4.305 | 0.0809 | 9.845 |
| `CCN(C(c1cccnc1)c1ccc2c(c1)CCC2)S(C)(=O)=O` (centres unmarked) | -1.07 | 3.849 | 10.87 | -3.03 |
| `O=C(Nc1cc(C(F)(F)F)c[nH]c1=O)C1CCCN1` (centres unmarked) | 5.751 | -6.207 | 2.733 | 9.901 |
| `CC(C)NC(=O)c1cc2c([nH]c1=O)CC(c1cccs1)CC2=O` (centres unmarked) | 2.106 | -18.06 | -5.518 | 4.545 |
| `CCn1cnnc1CNC(=O)N1CCN(c2cccs2)CC1` | -4.162 | -1.466 | 0.07994 | 1.527 |
| `c1cncc(CN2CCC(NCCc3ccc4c(c3)OCO4)CC2)c1` | -0.1137 | -17.11 | 0.2913 | -0.9804 |
| `CC(C)C(Sc1nnnn1C1CC1)C(=O)NCc1ccccc1` (centres unmarked) | -0.8555 | -8.379 | -1.071 | 2.874 |
| `CN1CCC(n2nc(Cc3cccc(Cl)c3)nc2Cn2cnnn2)CC1` | -1.751 | -34.93 | 2.147 | -7.692 |
| `Cc1cc(C)c(C(=O)N2CCC3(CCCNC3)C2)cc1C` (centres unmarked) | -3.407 | -6.579 | -0.3564 | 2.609 |
| `C[C@]1(O)CN(Cc2ncccc2F)CC[C@@H]1Oc1cccc(F)c1` | 1.869 | 13.33 | - | 7.692 |
| `COCC(=O)Nc1ccc(-c2noc([C@@H]3CCCN3C(C)C)n2)cn1` | 3.07 | -5.554 | -4.744 | -0.9901 |
| `COCC(=O)N1CCCC1c1cc(N2CCN(C(C)=O)CC2)cc(C)n1` (centres unmarked) | 1.44 | -2.681 | - | 6.593 |
| `Cc1ccc(CN2Cc3nnn(C)c3C(COCc3ccccc3)C2)o1` (centres unmarked) | 2.391 | -21.59 | 4.534 | 17.36 |

The last 5 entries again:

compound	A	B	C	D
Cc1cc(C)c(C(=O)N2CCC3(CCCNC3)C2)cc1C (centres unmarked)	-3.407	-6.579	-0.3564	2.609
C[C@]1(O)CN(Cc2ncccc2F)CC[C@@H]1Oc1cccc(F)c1	1.869	13.33	-	7.692
COCC(=O)Nc1ccc(-c2noc([C@@H]3CCCN3C(C)C)n2)cn1	3.07	-5.554	-4.744	-0.9901
COCC(=O)N1CCCC1c1cc(N2CCN(C(C)=O)CC2)cc(C)n1 (centres unmarked)	1.44	-2.681	-	6.593
Cc1ccc(CN2Cc3nnn(C)c3C(COCc3ccccc3)C2)o1 (centres unmarked)	2.391	-21.59	4.534	17.36